{"sequences": {"note": "Chains of the proteins cited; added tags and fusions are not shown. Lines headed by an entry give the natural chain unless they say otherwise; changes in a name come on top.", "UniProt Q15022": "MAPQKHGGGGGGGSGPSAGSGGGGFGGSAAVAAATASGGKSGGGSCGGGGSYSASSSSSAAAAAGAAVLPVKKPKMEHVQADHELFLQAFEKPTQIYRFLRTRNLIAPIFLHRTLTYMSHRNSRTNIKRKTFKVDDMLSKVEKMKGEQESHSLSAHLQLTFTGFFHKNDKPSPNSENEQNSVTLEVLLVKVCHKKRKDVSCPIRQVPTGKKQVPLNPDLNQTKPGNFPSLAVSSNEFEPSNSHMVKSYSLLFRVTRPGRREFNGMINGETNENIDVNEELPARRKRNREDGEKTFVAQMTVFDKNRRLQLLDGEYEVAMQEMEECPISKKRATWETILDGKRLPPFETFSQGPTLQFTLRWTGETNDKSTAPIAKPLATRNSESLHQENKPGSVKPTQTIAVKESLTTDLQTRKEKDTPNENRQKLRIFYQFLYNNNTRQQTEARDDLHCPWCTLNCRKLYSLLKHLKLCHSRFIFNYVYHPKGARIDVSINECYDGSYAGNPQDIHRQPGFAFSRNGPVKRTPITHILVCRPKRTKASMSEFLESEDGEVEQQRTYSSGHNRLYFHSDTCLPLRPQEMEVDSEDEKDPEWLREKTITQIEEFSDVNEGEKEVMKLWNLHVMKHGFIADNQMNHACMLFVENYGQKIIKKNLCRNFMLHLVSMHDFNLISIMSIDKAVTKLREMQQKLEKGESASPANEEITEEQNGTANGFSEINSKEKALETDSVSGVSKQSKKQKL", "UniProt Q9UNE7": "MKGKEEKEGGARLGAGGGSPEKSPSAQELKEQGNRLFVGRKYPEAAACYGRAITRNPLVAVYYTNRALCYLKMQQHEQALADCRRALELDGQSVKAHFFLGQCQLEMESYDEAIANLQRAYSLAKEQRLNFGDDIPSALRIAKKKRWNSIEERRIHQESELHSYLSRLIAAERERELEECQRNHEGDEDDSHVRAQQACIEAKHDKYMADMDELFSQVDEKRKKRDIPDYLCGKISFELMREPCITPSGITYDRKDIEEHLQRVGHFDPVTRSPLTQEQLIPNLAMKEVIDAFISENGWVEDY", "UniProt Q15468": "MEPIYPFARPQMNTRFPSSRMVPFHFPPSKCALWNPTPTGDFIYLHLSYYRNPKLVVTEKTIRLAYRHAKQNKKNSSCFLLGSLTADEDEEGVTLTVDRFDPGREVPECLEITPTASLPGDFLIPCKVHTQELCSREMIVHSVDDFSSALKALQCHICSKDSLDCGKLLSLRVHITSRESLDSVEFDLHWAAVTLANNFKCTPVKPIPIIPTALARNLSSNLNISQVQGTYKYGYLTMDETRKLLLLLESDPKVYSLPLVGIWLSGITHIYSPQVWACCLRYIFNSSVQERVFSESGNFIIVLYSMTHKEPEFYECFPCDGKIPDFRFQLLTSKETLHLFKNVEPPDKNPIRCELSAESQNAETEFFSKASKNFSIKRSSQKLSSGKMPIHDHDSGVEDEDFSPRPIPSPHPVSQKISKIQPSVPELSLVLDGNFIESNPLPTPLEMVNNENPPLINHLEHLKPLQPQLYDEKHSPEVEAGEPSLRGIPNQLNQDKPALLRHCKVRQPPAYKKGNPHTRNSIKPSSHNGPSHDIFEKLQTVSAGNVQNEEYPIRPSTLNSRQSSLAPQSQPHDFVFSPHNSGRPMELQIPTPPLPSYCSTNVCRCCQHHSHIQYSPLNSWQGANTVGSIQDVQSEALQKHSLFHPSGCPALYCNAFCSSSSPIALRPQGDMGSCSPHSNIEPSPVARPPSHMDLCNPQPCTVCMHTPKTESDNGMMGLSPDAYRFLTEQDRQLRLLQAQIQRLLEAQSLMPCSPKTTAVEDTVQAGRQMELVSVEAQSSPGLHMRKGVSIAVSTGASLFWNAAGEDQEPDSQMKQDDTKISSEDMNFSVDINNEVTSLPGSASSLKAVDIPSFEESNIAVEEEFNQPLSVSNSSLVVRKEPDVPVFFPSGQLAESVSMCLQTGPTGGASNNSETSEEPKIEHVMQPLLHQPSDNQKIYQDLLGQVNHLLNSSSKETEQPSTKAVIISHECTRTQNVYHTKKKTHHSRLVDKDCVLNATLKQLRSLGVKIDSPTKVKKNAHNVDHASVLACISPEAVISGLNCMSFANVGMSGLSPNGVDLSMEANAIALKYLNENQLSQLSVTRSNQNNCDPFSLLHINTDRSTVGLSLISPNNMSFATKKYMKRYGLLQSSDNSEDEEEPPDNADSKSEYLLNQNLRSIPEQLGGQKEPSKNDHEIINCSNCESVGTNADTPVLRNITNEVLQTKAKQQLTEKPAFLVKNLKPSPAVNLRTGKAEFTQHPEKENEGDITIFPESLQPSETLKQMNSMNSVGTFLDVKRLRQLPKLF", "UniProt O43815": "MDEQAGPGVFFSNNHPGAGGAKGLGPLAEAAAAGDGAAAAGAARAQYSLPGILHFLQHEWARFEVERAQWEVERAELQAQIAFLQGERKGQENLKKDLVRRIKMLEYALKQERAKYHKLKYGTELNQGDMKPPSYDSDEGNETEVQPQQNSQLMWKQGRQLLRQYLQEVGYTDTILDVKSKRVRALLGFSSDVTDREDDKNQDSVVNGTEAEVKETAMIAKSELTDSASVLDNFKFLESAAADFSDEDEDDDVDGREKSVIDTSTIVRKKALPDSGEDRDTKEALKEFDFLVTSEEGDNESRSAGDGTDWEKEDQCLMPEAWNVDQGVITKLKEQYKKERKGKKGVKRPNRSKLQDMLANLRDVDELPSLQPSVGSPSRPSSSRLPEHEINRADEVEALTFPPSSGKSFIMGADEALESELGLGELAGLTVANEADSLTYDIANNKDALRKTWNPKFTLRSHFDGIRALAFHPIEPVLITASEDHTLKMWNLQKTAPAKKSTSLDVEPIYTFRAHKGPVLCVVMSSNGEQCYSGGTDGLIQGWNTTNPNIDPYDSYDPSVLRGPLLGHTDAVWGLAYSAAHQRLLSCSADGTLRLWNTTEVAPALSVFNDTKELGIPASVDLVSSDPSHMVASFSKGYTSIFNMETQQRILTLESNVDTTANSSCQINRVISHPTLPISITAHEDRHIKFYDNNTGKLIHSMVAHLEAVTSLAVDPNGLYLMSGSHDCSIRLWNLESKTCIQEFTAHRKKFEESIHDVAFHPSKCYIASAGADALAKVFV", "UniProt O95425, whole entry, looked up": "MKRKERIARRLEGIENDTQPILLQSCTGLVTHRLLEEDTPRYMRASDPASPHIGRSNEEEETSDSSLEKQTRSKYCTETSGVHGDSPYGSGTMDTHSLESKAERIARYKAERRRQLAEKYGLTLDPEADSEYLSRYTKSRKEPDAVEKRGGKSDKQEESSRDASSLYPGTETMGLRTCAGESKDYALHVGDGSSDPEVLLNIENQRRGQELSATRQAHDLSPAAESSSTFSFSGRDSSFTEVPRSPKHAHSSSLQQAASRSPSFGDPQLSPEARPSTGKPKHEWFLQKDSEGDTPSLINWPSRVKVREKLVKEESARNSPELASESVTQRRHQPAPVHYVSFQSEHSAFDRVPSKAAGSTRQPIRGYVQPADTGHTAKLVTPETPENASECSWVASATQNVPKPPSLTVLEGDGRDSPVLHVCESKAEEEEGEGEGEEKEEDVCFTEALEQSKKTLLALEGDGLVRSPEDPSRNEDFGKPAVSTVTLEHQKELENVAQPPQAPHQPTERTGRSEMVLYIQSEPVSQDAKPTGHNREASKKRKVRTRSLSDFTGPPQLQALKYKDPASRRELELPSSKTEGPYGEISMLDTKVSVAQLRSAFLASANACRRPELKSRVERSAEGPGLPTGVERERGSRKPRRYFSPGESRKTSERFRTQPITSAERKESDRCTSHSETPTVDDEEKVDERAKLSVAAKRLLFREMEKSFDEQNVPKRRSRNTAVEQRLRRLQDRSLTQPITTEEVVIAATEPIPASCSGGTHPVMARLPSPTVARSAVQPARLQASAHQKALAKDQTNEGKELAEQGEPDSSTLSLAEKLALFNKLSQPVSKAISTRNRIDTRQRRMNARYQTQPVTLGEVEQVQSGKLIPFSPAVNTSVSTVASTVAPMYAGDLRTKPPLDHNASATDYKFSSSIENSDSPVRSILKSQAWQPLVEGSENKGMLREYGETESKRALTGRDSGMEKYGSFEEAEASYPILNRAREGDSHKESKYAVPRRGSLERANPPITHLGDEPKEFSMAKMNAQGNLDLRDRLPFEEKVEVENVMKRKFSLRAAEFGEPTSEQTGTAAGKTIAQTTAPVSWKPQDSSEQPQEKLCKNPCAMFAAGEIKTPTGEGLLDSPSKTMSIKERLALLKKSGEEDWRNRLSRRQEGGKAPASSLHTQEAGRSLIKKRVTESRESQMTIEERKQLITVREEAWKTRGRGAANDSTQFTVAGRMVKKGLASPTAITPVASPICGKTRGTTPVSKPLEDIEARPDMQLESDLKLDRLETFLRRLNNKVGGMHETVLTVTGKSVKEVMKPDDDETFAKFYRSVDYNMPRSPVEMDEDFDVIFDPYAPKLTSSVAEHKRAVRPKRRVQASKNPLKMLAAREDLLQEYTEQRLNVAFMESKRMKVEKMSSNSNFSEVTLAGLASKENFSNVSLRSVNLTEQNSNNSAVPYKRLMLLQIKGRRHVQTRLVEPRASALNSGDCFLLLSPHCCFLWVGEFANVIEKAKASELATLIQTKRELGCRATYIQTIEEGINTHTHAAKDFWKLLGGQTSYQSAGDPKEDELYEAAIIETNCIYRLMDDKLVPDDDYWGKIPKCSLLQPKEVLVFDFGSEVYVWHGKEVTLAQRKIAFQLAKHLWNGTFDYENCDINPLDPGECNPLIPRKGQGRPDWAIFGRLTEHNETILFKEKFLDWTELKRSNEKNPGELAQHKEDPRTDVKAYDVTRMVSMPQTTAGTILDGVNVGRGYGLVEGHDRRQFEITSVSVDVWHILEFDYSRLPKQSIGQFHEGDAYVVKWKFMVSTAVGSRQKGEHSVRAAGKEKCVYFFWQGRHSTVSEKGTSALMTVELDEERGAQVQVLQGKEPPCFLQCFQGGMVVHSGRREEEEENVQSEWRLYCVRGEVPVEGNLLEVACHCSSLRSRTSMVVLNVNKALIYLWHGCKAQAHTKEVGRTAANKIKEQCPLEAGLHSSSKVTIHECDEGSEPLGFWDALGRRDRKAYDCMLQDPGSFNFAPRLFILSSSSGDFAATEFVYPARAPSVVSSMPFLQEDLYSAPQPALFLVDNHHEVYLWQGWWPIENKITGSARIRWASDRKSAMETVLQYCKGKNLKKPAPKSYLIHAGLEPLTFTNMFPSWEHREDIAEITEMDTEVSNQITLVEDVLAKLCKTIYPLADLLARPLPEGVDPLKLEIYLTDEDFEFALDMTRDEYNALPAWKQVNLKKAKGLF", "UniProt O60232": "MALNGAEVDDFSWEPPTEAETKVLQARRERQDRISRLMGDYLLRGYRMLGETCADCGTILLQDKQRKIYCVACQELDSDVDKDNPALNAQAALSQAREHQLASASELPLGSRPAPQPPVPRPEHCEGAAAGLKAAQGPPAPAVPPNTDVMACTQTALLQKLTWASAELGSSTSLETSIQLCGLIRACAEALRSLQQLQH", "UniProt P40763, whole entry, looked up": "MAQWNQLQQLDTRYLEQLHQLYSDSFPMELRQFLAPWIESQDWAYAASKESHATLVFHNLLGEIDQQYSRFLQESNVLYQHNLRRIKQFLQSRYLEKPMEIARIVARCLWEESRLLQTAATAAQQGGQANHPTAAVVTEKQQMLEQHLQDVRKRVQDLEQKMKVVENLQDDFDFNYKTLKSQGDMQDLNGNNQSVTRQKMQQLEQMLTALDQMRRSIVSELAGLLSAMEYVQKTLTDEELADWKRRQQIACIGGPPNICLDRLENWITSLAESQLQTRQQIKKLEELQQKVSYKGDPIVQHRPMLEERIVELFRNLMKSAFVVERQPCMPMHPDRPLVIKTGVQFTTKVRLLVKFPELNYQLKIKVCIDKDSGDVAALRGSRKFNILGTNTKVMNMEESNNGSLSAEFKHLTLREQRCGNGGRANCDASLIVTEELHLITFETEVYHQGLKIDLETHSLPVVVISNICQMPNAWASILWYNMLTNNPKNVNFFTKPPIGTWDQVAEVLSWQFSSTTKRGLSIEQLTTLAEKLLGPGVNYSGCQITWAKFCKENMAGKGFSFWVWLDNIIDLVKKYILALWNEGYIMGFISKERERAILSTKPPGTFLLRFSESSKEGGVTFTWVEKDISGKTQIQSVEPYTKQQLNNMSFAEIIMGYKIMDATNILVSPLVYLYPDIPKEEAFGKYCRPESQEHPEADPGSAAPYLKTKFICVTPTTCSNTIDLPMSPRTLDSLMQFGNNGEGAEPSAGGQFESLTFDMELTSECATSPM", "UniProt Q07955, whole entry, looked up": "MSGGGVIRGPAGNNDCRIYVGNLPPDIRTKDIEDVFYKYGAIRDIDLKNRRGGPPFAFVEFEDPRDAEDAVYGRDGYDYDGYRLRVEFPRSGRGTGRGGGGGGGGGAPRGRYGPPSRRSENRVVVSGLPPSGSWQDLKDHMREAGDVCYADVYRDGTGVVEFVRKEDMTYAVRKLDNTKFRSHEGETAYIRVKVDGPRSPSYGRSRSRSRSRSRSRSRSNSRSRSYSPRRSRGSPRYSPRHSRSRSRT"}, "source": "the supplement of paper PMC12067093", "about": "“Discovery and optimisation of a covalent ligand for TRIM25 and its application to targeted protein ubiquitination” (Chemical Science, 2025)", "compound": "CC1Cc2ccccc2N1C(=O)C1CCCN(C1)C(=O)CCl (mixture of isomers) [TRIM25 ligand 11 (diastereomer mixture)]", "assay": "probe-labelled cysteine peptide fold change vs DMSO (competition) (log2 fold change); higher = less target engagement (more negative = stronger competition)", "conditions": "THP-1, incubation time: 4 h", "note": "Some of the results follow.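 Note: competitive chemoproteomic profiling in live THP-1 cells with an iodoacetamide desthiobiotin (IA-DTB) probe, comparing probe-labelled peptide intensities in compound-treated cells against DMSO-treated controls.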", "data": [{"target": "SUMO1_P63165_52_ESYCQR (UniProt P63165)", "values": [{"measurement": "probe-labelled cysteine peptide fold change", "setting": "10 µM", "result": 0.000976}, {"measurement": "probe-labelled cysteine peptide fold change", "setting": "50 µM", "result": 0.048}]}, {"target": "SUZ12_Q15022_531_RTPITHILVCRPK (UniProt Q15022)", "values": [{"measurement": "probe-labelled cysteine peptide fold change", "setting": "10 µM", "result": -0.127}, {"measurement": "probe-labelled cysteine peptide fold change", "setting": "50 µM", "result": -0.163}]}, {"target": "STXBP5_Q5T5C0_49_VLDGLTAGSSSASQQQQQQHPPGNREPEIQETLQSEHFQLCK (UniProt Q5T5C0)", "values": [{"measurement": "probe-labelled cysteine peptide fold change", "setting": "10 µM", "result": -0.013}, {"measurement": "probe-labelled cysteine peptide fold change", "setting": "50 µM", "result": -0.079}]}, {"target": "STUB1_Q9UNE7_83_MQQHEQALADCRR (UniProt Q9UNE7)", "values": [{"measurement": "probe-labelled cysteine peptide fold change", "setting": "10 µM", "result": -0.218}, {"measurement": "probe-labelled cysteine peptide fold change", "setting": "50 µM", "result": -0.0369}]}, {"target": "STUB1_Q9UNE7_83_MQQHEQALADCR (UniProt Q9UNE7)", "values": [{"measurement": "probe-labelled cysteine peptide fold change", "setting": "10 µM", "result": 0.0976}, {"measurement": "probe-labelled cysteine peptide fold change", "setting": "50 µM", "result": 0.127}]}, {"target": "STIL_Q15468_353_CELSAESQNAETEFFSK (UniProt Q15468)", "values": [{"measurement": "probe-labelled cysteine peptide fold change", "setting": "10 µM", "result": 0.151}, {"measurement": "probe-labelled cysteine peptide fold change", "setting": "50 µM", "result": -0.109}]}, {"target": "STRN_O43815_316_EDQCLMPEAWNVDQGVITK (UniProt O43815)", "values": [{"measurement": "probe-labelled cysteine peptide fold change", "setting": "10 µM", "result": -0.0944}, {"measurement": "probe-labelled cysteine peptide fold change", "setting": "50 µM", "result": -0.257}]}, {"target": "SVIL_O95425_1928_ALIYLWHGCK (UniProt O95425)", "values": [{"measurement": "probe-labelled cysteine peptide fold change", "setting": "10 µM", "result": -0.0554}, {"measurement": "probe-labelled cysteine peptide fold change", "setting": "50 µM", "result": 0.195}]}, {"target": "SSSCA1_O60232_73_IYCVACQELDSDVDK (UniProt O60232)", "values": [{"measurement": "probe-labelled cysteine peptide fold change", "setting": "10 µM", "result": 0.104}, {"measurement": "probe-labelled cysteine peptide fold change", "setting": "50 µM", "result": -0.2}]}, {"target": "STAT3_P40763_426_ANCDASLIVTEELHLITFETEVYHQGLK (UniProt P40763)", "values": [{"measurement": "probe-labelled cysteine peptide fold change", "setting": "10 µM", "result": 0.248}, {"measurement": "probe-labelled cysteine peptide fold change", "setting": "50 µM", "result": 0.0878}]}, {"target": "STXBP5_Q5T5C0_697_SRQPSGAGLCDISEGTVVPEDR (UniProt Q5T5C0)", "values": [{"measurement": "probe-labelled cysteine peptide fold change", "setting": "10 µM", "result": -0.312}, {"measurement": "probe-labelled cysteine peptide fold change", "setting": "50 µM", "result": -0.177}]}, {"target": "SRSF3_P84103_6_DSCPLDCK (UniProt P84103)", "values": [{"measurement": "probe-labelled cysteine peptide fold change", "setting": "10 µM", "result": -0.208}, {"measurement": "probe-labelled cysteine peptide fold change", "setting": "50 µM", "result": -0.245}]}, {"target": "STIL_Q15468_970_AVIISHECTR (UniProt Q15468)", "values": [{"measurement": "probe-labelled cysteine peptide fold change", "setting": "10 µM", "result": -0.137}, {"measurement": "probe-labelled cysteine peptide fold change", "setting": "50 µM", "result": -0.0233}]}, {"target": "STRIP1_Q5VSL9_798_AHSNPDFLPVDNCLQSVLGQR (UniProt Q5VSL9)", "values": [{"measurement": "probe-labelled cysteine peptide fold change", "setting": "10 µM", "result": 0.00641}, {"measurement": "probe-labelled cysteine peptide fold change", "setting": "50 µM", "result": -0.153}]}, {"target": "SUPT5H_O00267_1012_SVTGGMCSVYLK (UniProt O00267)", "values": [{"measurement": "probe-labelled cysteine peptide fold change", "setting": "10 µM", "result": -0.0187}, {"measurement": "probe-labelled cysteine peptide fold change", "setting": "50 µM", "result": 0.0806}]}, {"target": "SRSF1_Q07955_148_EAGDVCYADVYR (UniProt Q07955)", "values": [{"measurement": "probe-labelled cysteine peptide fold change", "setting": "10 µM", "result": -0.201}, {"measurement": "probe-labelled cysteine peptide fold change", "setting": "50 µM", "result": -0.428}]}]}
